This is one part of the list. The calls rarely recur for the same compound in another form.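 Kinases were expressed as nanoluciferase fusions in K562 cells and luminescence was read every 4 h between 2 and 18 h as percent of control, DMSO set to 100% and a positive control to 0%. A time point counts as decreased when the signal drops significantly (2 sigma). The hit call is the authors' own, does not follow from the count of time points alone, and its rule is not shown.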
Experiments:
Test in all cases: kinase-Nluc reporter destabilization hit call (1 = scored as downregulated) (binary); higher = compound decreases kinase abundance
Conditions in all cases: K562; 2-18 h
[1] = target: CDK7 (UniProt P50613)
[2] = target: CDK9 (UniProt P50750)
[3] = target: CHEK2 (UniProt O96017)
[4] = target: CSF1R (UniProt P07333)
[5] = target: CSK (UniProt P41240)
[6] = target: CSNK1A1 (UniProt P48729)
[7] = target: CSNK1D (UniProt P48730)
[8] = target: DDR1 (UniProt Q08345)
[9] = target: DYRK1B (UniProt Q9Y463)
[10] = target: DYRK2 (UniProt Q92630)
[11] = target: EGFR (UniProt P00533)
[12] = target: EGFR_G719S (UniProt P00533)
[13] = target: EGFR_G719S_T790M (UniProt P00533)
[14] = target: EGFR_L718V (UniProt P00533)
[15] = target: EGFR_L858R (UniProt P00533)
[16] = target: EGFR_L861Q (UniProt P00533)
[17] = target: EGFR_T790M (UniProt P00533)
[18] = target: EPHA2 (UniProt P29317)
[19] = target: ERBB3 (UniProt P21860)
[20] = target: ERBB4_R711C (clone: ERBB4_mut) (UniProt Q15303)

By UniProt entry, the sequences of proteins in these tests, tags left out. Where a name states a change or a piece, a line headed by the entry shows the natural chain unless it says otherwise.
UniProt P50613: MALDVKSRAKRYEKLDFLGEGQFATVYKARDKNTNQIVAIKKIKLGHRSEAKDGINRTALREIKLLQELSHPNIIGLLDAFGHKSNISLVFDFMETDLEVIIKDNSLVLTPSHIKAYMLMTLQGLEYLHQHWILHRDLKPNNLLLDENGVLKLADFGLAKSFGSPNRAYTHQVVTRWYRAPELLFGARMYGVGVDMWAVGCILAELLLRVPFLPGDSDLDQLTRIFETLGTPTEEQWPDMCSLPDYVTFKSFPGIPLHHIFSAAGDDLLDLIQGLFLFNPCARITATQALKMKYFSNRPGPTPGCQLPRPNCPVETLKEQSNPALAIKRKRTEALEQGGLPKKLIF
UniProt P50750, whole entry: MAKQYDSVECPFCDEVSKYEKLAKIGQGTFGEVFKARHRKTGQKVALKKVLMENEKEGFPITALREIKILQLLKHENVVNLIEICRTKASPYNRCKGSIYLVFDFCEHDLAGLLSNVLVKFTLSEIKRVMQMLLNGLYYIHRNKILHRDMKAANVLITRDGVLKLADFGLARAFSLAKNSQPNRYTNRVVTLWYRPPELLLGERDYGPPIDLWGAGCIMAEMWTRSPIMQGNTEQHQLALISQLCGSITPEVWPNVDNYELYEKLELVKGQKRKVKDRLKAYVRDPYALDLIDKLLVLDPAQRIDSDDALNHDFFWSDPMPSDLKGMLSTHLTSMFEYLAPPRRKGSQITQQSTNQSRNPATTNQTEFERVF
UniProt O96017, whole entry: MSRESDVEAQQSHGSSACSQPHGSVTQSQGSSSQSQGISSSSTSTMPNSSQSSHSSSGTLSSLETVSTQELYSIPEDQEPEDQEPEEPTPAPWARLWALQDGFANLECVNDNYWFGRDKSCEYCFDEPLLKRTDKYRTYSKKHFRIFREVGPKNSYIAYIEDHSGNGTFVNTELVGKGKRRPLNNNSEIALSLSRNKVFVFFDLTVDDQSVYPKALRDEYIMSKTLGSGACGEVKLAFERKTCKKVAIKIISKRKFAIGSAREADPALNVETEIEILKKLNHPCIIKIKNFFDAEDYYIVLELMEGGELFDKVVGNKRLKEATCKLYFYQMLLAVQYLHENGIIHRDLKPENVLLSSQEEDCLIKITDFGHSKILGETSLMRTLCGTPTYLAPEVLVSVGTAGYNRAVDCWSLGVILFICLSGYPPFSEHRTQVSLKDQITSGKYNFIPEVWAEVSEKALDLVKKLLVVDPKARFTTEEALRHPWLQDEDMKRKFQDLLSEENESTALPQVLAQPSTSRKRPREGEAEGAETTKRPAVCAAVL
UniProt P41240: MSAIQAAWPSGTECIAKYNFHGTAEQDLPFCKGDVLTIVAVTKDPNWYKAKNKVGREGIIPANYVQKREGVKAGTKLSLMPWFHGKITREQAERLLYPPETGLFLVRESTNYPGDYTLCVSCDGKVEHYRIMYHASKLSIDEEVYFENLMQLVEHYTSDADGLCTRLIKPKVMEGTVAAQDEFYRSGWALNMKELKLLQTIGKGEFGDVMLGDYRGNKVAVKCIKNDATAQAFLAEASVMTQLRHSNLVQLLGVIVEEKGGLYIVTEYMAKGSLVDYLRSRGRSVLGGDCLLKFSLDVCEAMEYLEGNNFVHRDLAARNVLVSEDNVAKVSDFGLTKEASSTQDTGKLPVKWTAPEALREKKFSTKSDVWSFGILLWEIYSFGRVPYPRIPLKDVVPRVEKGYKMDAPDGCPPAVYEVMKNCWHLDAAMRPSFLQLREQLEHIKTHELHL
UniProt P48729: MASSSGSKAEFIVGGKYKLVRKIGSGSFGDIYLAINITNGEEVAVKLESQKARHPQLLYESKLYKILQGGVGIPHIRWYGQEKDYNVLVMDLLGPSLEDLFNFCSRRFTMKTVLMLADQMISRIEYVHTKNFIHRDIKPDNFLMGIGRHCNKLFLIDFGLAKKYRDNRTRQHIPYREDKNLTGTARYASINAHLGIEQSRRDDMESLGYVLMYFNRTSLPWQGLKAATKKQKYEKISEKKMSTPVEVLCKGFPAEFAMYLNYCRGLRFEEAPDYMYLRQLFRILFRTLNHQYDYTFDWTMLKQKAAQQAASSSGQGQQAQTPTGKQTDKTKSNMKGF
UniProt P48730: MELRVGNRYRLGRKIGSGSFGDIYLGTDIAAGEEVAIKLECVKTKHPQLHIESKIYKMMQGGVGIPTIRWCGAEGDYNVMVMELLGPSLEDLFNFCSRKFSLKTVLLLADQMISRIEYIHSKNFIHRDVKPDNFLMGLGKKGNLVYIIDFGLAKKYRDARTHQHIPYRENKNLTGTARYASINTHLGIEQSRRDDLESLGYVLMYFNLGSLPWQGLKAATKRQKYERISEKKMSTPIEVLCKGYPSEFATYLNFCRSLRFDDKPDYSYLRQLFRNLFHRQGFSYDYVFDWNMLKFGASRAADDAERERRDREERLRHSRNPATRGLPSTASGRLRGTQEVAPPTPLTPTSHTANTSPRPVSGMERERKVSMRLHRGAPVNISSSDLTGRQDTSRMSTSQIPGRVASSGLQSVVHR
UniProt P29317, whole entry: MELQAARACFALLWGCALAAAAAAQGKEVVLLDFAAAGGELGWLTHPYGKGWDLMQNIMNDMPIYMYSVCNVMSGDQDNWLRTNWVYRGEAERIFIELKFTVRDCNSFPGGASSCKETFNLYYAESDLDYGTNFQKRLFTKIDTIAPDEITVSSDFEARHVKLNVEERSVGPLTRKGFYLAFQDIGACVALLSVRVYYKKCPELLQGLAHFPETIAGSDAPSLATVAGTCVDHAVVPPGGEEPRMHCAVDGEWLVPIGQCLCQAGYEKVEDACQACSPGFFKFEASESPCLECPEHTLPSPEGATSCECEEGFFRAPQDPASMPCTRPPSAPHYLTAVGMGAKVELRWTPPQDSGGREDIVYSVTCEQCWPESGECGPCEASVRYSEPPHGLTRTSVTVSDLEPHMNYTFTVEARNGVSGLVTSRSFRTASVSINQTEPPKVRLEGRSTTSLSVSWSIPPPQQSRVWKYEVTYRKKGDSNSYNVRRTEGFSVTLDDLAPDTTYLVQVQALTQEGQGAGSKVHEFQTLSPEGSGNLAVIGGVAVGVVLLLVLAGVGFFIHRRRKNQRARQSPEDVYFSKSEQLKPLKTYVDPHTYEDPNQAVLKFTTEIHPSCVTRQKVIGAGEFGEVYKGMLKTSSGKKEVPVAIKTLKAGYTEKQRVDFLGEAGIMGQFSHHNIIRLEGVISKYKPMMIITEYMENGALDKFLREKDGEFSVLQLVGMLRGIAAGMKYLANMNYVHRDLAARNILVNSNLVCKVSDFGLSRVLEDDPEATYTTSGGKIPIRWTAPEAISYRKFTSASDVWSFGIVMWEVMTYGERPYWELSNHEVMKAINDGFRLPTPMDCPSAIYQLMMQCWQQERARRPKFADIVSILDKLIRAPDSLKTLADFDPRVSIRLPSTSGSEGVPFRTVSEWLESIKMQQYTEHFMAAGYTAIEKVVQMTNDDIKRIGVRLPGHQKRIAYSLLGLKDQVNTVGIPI
UniProt P21860, whole entry: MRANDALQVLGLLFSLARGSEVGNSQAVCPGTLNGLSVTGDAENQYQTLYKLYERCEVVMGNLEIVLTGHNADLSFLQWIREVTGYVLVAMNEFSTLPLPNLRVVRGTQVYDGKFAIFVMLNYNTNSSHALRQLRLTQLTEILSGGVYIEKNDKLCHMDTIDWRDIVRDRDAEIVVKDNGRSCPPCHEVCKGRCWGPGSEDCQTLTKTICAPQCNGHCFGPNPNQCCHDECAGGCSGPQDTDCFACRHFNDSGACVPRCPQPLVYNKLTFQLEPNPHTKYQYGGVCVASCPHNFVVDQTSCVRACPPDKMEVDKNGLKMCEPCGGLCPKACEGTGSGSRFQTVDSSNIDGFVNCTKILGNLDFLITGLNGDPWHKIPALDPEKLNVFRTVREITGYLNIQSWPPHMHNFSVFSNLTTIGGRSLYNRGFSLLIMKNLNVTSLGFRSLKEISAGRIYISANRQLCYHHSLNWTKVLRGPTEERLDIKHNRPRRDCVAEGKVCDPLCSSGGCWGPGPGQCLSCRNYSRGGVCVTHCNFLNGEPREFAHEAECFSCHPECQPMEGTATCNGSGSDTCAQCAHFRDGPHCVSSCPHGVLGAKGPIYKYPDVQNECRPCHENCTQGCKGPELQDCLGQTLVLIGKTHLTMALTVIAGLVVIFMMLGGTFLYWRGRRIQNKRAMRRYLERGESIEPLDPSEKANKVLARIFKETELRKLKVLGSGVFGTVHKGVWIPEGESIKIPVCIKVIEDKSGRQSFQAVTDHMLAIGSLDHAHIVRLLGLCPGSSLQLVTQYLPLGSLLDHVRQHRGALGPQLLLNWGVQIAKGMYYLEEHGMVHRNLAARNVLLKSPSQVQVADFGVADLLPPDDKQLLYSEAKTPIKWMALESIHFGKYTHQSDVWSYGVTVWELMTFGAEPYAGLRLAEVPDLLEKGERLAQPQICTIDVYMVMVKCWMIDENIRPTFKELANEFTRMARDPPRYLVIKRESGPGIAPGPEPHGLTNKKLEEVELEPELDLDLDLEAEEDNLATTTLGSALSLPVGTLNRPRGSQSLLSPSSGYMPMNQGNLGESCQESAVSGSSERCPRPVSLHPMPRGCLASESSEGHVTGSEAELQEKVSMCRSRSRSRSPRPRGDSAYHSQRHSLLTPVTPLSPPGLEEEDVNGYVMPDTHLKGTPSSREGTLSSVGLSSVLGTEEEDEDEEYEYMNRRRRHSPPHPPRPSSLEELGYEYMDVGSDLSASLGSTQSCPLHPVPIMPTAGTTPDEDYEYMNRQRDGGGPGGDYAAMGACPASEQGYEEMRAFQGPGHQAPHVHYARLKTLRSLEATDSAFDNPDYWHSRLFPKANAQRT
UniProt Q15303, whole entry R711C: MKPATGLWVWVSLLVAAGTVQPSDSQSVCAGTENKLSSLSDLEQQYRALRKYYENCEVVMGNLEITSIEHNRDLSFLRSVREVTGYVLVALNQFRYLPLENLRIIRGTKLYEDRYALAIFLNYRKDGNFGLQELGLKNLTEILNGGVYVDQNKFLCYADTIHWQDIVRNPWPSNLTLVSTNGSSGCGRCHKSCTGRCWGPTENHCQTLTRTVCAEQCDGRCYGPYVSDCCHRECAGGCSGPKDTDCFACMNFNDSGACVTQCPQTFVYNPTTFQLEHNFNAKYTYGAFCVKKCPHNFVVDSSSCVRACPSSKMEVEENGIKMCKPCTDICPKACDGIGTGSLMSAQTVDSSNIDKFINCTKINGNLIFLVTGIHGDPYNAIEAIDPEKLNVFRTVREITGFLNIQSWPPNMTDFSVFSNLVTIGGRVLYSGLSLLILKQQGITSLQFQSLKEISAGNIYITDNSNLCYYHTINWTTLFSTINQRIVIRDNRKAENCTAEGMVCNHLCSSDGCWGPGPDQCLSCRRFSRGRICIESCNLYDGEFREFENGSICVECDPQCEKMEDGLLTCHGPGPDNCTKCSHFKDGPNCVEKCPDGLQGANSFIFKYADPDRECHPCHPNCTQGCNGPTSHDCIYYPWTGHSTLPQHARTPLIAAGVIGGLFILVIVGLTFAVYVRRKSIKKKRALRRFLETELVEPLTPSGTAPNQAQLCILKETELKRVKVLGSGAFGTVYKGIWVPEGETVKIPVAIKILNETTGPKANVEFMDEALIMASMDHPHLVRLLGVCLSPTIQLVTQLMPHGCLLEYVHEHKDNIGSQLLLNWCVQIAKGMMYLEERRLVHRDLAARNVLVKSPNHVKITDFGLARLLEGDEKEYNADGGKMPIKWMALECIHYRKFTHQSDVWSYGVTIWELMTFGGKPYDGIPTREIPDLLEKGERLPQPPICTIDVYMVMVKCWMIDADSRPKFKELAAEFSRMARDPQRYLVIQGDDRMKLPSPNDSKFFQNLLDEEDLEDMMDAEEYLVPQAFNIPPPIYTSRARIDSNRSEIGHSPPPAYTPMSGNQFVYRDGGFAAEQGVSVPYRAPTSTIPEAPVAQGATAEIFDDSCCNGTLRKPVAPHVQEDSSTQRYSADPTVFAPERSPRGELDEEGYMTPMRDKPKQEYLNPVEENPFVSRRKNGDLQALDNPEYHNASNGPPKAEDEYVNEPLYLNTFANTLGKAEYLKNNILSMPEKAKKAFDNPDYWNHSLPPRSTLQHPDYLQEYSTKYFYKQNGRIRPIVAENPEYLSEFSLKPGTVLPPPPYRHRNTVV

Measured: kinase-Nluc reporter destabilization hit call

COc1cc2nccc(Nc3cccc(Oc4ccccc4)c3)c2cc1OC (2.5 µM)
inactive: [1] 0 | [2] 0 | [3] 0 | [4] 0 | [5] 0 | [6] 0 | [7] 0 | [8] 0 | [9] 0 | [10] 0 | [11] 0 | [12] 0 | [13] 0 | [14] 0 | [15] 0 | [16] 0 | [17] 0 | [18] 0 | [19] 0 | [20] 0

N=C(NC(=N)N1CCCC1)Nc1ccc(OC(F)(F)F)cc1 (10 µM)
inactive: [1] 0 | [2] 0 | [3] 0 | [4] 0 | [5] 0 | [6] 0 | [7] 0 | [8] 0 | [9] 0 | [10] 0 | [11] 0 | [12] 0 | [13] 0 | [14] 0 | [15] 0 | [16] 0 | [17] 0 | [18] 0 | [19] 0 | [20] 0

Cc1nn(CC(F)(F)F)cc1Nc1ncc(Br)c(NCc2ccc(S(N)(=O)=O)cc2)n1 (10 µM)
inactive: [1] 0 | [2] 0 | [3] 0 | [4] 0 | [5] 0 | [6] 0 | [7] 0 | [8] 0 | [9] 0 | [10] 0 | [11] 0 | [12] 0 | [13] 0 | [14] 0 | [15] 0 | [16] 0 | [17] 0 | [18] 0 | [19] 0 | [20] 0

Cc1ncsc1-c1ccc(CNC(=O)[C@@H]2C[C@@H](O)CN2C(=O)[C@@H](NC(=O)COCCOc2ccc(-c3cc(Nc4ccc(OC(F)(F)F)cc4)ncn3)cc2)C(C)(C)C)cc1 (2.5 µM)
inactive: [1] 0 | [2] 0 | [3] 0 | [4] 0 | [5] 0 | [6] 0 | [7] 0 | [8] 0 | [9] 0 | [10] 0 | [11] 0 | [12] 0 | [13] 0 | [14] 0 | [15] 0 | [16] 0 | [17] 0 | [18] 0 | [19] 0 | [20] 0

Cc1cccc(-c2nn3c(c2-c2ccnc4ccc(C(N)=O)cc24)CCC3)n1 [Galunisertib] (10 µM)
inactive: [1] 0 | [2] 0 | [3] 0 | [4] 0 | [5] 0 | [6] 0 | [7] 0 | [8] 0 | [9] 0 | [10] 0 | [11] 0 | [12] 0 | [13] 0 | [14] 0 | [15] 0 | [16] 0 | [17] 0 | [18] 0 | [19] 0 | [20] 0

COc1ccc2cc1Oc1ccc(cc1)C[C@H]1c3cc(c(OC)cc3CCN1C)Oc1c(O)c(OC)cc3c1[C@H](C2)N(C)CC3 [Fangchinoline] (2.5 µM)
inactive: [1] 0 | [2] 0 | [3] 0 | [4] 0 | [5] 0 | [6] 0 | [7] 0 | [8] 0 | [9] 0 | [10] 0 | [11] 0 | [12] 0 | [13] 0 | [14] 0 | [15] 0 | [16] 0 | [17] 0 | [18] 0 | [19] 0 | [20] 0

CN(C)C(=O)c1cc2cnc(Nc3ccc(N4CCN(CCCCNC(=O)COc5cccc6c5C(=O)N(C5CCC(=O)NC5=O)C6=O)CC4)cn3)nc2n1C1CCCC1 (stereo not given) (10 µM)
inactive: [1] 0 | [2] 0 | [3] 0 | [4] 0 | [5] 0 | [6] 0 | [7] 0 | [8] 0 | [9] 0 | [10] 0 | [11] 0 | [12] 0 | [13] 0 | [14] 0 | [15] 0 | [16] 0 | [17] 0 | [18] 0 | [19] 0 | [20] 0

O=S(=O)(c1ccc(O)cc1O)N1Cc2cc(O)cc(O)c2C1 (10 µM)
inactive: [1] 0 | [2] 0 | [3] 0 | [4] 0 | [5] 0 | [6] 0 | [7] 0 | [8] 0 | [9] 0 | [10] 0 | [11] 0 | [12] 0 | [13] 0 | [14] 0 | [15] 0 | [16] 0 | [17] 0 | [18] 0 | [19] 0 | [20] 0

CCC[C@H](C)Oc1nc(N)c2[nH]c(=O)n(CCCCCN3CCCCC3)c2n1 (10 µM)
inactive: [1] 0 | [2] 0 | [3] 0 | [4] 0 | [5] 0 | [6] 0 | [7] 0 | [8] 0 | [9] 0 | [10] 0 | [11] 0 | [12] 0 | [13] 0 | [14] 0 | [15] 0 | [16] 0 | [17] 0 | [18] 0 | [19] 0 | [20] 0

Retrieved by compound from the list above (2):
CCC[C@H](C)Oc1nc(N)c2[nH]c(=O)n(CCCCCN3CCCCC3)c2n1 (10 µM)
inactive: [1] 0 | [2] 0 | [3] 0 | [4] 0 | [5] 0 | [6] 0 | [7] 0 | [8] 0 | [9] 0 | [10] 0 | [11] 0 | [12] 0 | [13] 0 | [14] 0 | [15] 0 | [16] 0 | [17] 0 | [18] 0 | [19] 0 | [20] 0

CN(C)C(=O)c1cc2cnc(Nc3ccc(N4CCN(CCCCNC(=O)COc5cccc6c5C(=O)N(C5CCC(=O)NC5=O)C6=O)CC4)cn3)nc2n1C1CCCC1 (stereo not given) (10 µM)
inactive: [1] 0 | [2] 0 | [3] 0 | [4] 0 | [5] 0 | [6] 0 | [7] 0 | [8] 0 | [9] 0 | [10] 0 | [11] 0 | [12] 0 | [13] 0 | [14] 0 | [15] 0 | [16] 0 | [17] 0 | [18] 0 | [19] 0 | [20] 0

Carrying on.

CC(C)(CCCCCC(O)CCCCCC(C)(C)C(=O)O)C(=O)O [Bempedoic acid] (10 µM)
inactive: [1] 0 | [2] 0 | [3] 0 | [4] 0 | [5] 0 | [6] 0 | [7] 0 | [8] 0 | [9] 0 | [10] 0 | [11] 0 | [12] 0 | [13] 0 | [14] 0 | [15] 0 | [16] 0 | [17] 0 | [18] 0 | [19] 0 | [20] 0

Fc1ccc(-c2nc3n(c2-c2ccncc2)CCS3)cc1 (10 µM)
inactive: [1] 0 | [2] 0 | [3] 0 | [4] 0 | [5] 0 | [6] 0 | [7] 0 | [8] 0 | [9] 0 | [10] 0 | [11] 0 | [12] 0 | [13] 0 | [14] 0 | [15] 0 | [16] 0 | [17] 0 | [18] 0 | [19] 0 | [20] 0

CN1CCN(Cc2ccc(-c3cnc4[nH]cc(-c5ccc6[nH]ccc6c5)c4c3)cc2)CC1 (2.5 µM)
inactive: [1] 0 | [2] 0 | [3] 0 | [4] 0 | [5] 0 | [6] 0 | [7] 0 | [8] 0 | [9] 0 | [10] 0 | [11] 0 | [12] 0 | [13] 0 | [14] 0 | [15] 0 | [16] 0 | [17] 0 | [18] 0 | [19] 0 | [20] 0

CCc1cc(Nc2nccc(-c3c(-c4ccc(OC)c(C(=O)Nc5c(F)cccc5F)c4)nc4ccccn34)n2)c(OC)cc1N1CCC(N2CCN(S(C)(=O)=O)CC2)CC1 (2.5 µM)
inactive: [1] 0 | [2] 0 | [3] 0 | [4] 0 | [5] 0 | [6] 0 | [7] 0 | [8] 0 | [9] 0 | [10] 0 | [11] 0 | [12] 0 | [13] 0 | [14] 0 | [15] 0 | [16] 0 | [17] 0 | [18] 0 | [19] 0 | [20] 0

CCc1c(C(=O)NNC(=O)[C@H](O)c2cc(F)cc(F)c2)ccc(O)c1C (10 µM)
inactive: [1] 0 | [2] 0 | [3] 0 | [4] 0 | [5] 0 | [6] 0 | [7] 0 | [8] 0 | [9] 0 | [10] 0 | [11] 0 | [12] 0 | [13] 0 | [14] 0 | [15] 0 | [16] 0 | [17] 0 | [18] 0 | [19] 0 | [20] 0

O=c1c(O)c(-c2ccc(O)c(O)c2)oc2cc(O)c(O)c(O)c12 [Quercetagetin] (10 µM)
inactive: [1] 0 | [2] 0 | [3] 0 | [4] 0 | [5] 0 | [6] 0 | [7] 0 | [8] 0 | [9] 0 | [10] 0 | [11] 0 | [12] 0 | [13] 0 | [14] 0 | [15] 0 | [16] 0 | [17] 0 | [18] 0 | [19] 0 | [20] 0

C[C@@H]1CN(Cc2ccc(F)cc2)[C@@H](C)CN1C(=O)c1cc2c(C(=O)C(=O)N(C)C)cn(C)c2cc1Cl [Talmapimod] (10 µM)
inactive: [1] 0 | [2] 0 | [3] 0 | [4] 0 | [5] 0 | [6] 0 | [7] 0 | [8] 0 | [9] 0 | [10] 0 | [11] 0 | [12] 0 | [13] 0 | [14] 0 | [15] 0 | [16] 0 | [17] 0 | [18] 0 | [19] 0 | [20] 0

Nc1ccc(O)c(C(=O)O)c1 [5-Aminosalicylic Acid] (10 µM)
inactive: [1] 0 | [2] 0 | [3] 0 | [4] 0 | [5] 0 | [6] 0 | [7] 0 | [8] 0 | [9] 0 | [10] 0 | [11] 0 | [12] 0 | [13] 0 | [14] 0 | [15] 0 | [16] 0 | [17] 0 | [18] 0 | [19] 0 | [20] 0
